The list shows a part of the results.

Sequences of proteins named here, by UniProt entry; tags and fusion partners are left off.
UniProt Q0JBA9, entry or part of it: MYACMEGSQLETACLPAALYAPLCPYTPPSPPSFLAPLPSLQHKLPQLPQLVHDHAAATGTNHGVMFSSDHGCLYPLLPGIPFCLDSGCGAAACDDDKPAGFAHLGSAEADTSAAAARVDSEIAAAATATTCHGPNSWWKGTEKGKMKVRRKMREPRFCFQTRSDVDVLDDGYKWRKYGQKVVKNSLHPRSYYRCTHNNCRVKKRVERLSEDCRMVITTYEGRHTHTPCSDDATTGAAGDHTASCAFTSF

Data on 54 sequences can be found in article PMC7819943, “Rice protein-binding microarrays: a tool to detect cis-acting elements near promoter regions in rice”.

The target in this assay is OsWRKY34 (Oryza sativa, UniProt Q0JBA9 1-250). The experiment in a line: protein-binding microarray (RPBM); PBS, 2% BSA, 51.3 ng/ul salmon testes DNA, 50 uM zinc acetate, 200 nM TF, 25 C, 1 h; high values mean tight binding. As to conditions: protein: recombinant; tags: N-terminal polyhistidine and DsRed monomer fusion (pET32a); label: CyDye5-dUTP incorporated in the synthesized complementary strand; 3' TTTTT single-stranded linker to array surface; dsDNA, one strand shown. Put shortly: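 Polyhistidine-tagged DsRed fusions of transcription factors, joined at the N-terminus, were expressed in E. coli BL21-CodonPlus and isolated on Ni–NTA. They were incubated at 200 nM for 1 h at 25 °C on a custom Agilent array, double-stranded and BSA-blocked, in PBS with 2% BSA, salmon testes DNA and 50 µM zinc acetate. The binding signal is per-feature fluorescence intensity (arbitrary units) read on an Axon 4000B scanner after washing.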
Turning to “TGATTTTTGTCCCACGTGGCATTGACGTGGCGCTTATGTGCGGAGTCACCTAGTGCAG”, the binding signal was 8850 fluorescence intensity (a.u.).
Regarding “AATATGTACTACTTCCGTTTCAGGTTATAAGACTTTCTAGCGGAGTCACCTAGTGCAG”, the binding signal is 8400 fluorescence intensity (a.u.).
Take “TTTATCTCTATTTGCTGTGTTACTCTCGAGTTTTAGTTTCCGGAGTCACCTAGTGCAG”: the binding signal was 13100 fluorescence intensity (a.u.).
As for “GCCGTGCGCCGCTCGCCGCTCGCCGCGCGCTGTCGATGCCCGGAGTCACCTAGTGCAG”, the figure is 8200 fluorescence intensity (a.u.).
Regarding “CATTGCCATCTTACATTTCTACTCATCTGTCCTCCAAATCCGGAGTCACCTAGTGCAG”, the binding signal is 8500 fluorescence intensity (a.u.).
“ACCACCACCTTCGCCACGAGCTCCACGCCGTTGCCACTGTCGGAGTCACCTAGTGCAG”: the binding signal is 8460 fluorescence intensity (a.u.).
“CCCTCCACCACCACCCGCCGCCGCCGCCGCCCAAAACCCTCGGAGTCACCTAGTGCAG”: the binding signal was 10000 fluorescence intensity (a.u.).
Turning to “GTTCTTCCCGCCGGCCTATCGTATTACCGAAATTTGATAGCGGAGTCACCTAGTGCAG”, the binding signal is 8680 fluorescence intensity (a.u.).
With “ATCACCAGTTGCCATTCTGTCACCTCAACTTAGAACATACCGGAGTCACCTAGTGCAG”, the binding signal was 8290 fluorescence intensity (a.u.).
For “CCATCCATTTCTTGCTGAATTCTCTCTTCTTTAATTCATCCGGAGTCACCTAGTGCAG”, the binding signal is 8920 fluorescence intensity (a.u.).
As for “TGAGGATGCTTTATATATATGCTGGTTTTATGGTTGATAACGGAGTCACCTAGTGCAG”, the figure is 8730 fluorescence intensity (a.u.); as for “GGGAGGGGTTGGGAACTTGAAGGAAAGAACACAGCCTTAACGGAGTCACCTAGTGCAG”, 11300 fluorescence intensity (a.u.); as for “ACTTTTTCCATTACAGTTTGGGTTGAACATGTTGGGCCTTCGGAGTCACCTAGTGCAG”, 8170 fluorescence intensity (a.u.).
For “ACTGCTGATATGTTATCCTTTTTTACTGCAGATAAACTTCCGGAGTCACCTAGTGCAG”, the binding signal was 8560 fluorescence intensity (a.u.).
The same measure for “CTCATGCTGCTAGATACGCTAGTACTTCCTAAGGCTACTTCGGAGTCACCTAGTGCAG”: 8830 fluorescence intensity (a.u.); for “TGTATTTCCTTTCCTTTGTACAAGTTCAATCCTAGATAGTCGGAGTCACCTAGTGCAG”: 9410 fluorescence intensity (a.u.).
For the sequence “TACTTGGGTGGGAATGGGTTGAATTGGGATTCTAATCTGCCGGAGTCACCTAGTGCAG”, the binding signal was 13500 fluorescence intensity (a.u.).
Turning to “TTGTTGACCATGACCTAACTCTGACCATGAATCGTCTTCTCGGAGTCACCTAGTGCAG”, the binding signal was 11700 fluorescence intensity (a.u.).
For “TAACATCATTCCCATAGCGCTATCCATCCATATAATCAAACGGAGTCACCTAGTGCAG”, the binding signal was 8180 fluorescence intensity (a.u.).
As to “CGGGGAGGAGGGAGGAATAAATACGTCCTAGTCGATCAGCCGGAGTCACCTAGTGCAG”, the binding signal was 8150 fluorescence intensity (a.u.).
Regarding “CTTTCTGTACAATGTTTTGTACTACTCCGTTTCACAATATCGGAGTCACCTAGTGCAG”, the binding signal was 8540 fluorescence intensity (a.u.).
As for “TGGGACATTTTCGGGGTATACTTTCATTCTCCCGATTCTACGGAGTCACCTAGTGCAG”, the binding signal was 9820 fluorescence intensity (a.u.).
The same measure for “TCCTCGTCACTCCACTATCGAATCCACCTCCATCATTGACCGGAGTCACCTAGTGCAG”: 12000 fluorescence intensity (a.u.); for “AGCGTGTACATCCCTGTTAACTTGGCCTGTCGGACCTCATCGGAGTCACCTAGTGCAG”: 9340 fluorescence intensity (a.u.).
Turning to “GCTGCATTTGTTCTTGGCACAAACTTTGGAGTTTTTATTTCGGAGTCACCTAGTGCAG”, the binding signal is 8650 fluorescence intensity (a.u.).
For “GCAGGACGATCTCATTTGTGTTCCTATTTTACAGGTCAAACGGAGTCACCTAGTGCAG”, the binding signal is 9320 fluorescence intensity (a.u.).
As for “TCCATCCAACGCCCGTCCTTGCTTTAATTTGTTTCACCACCGGAGTCACCTAGTGCAG”, the binding signal was 8940 fluorescence intensity (a.u.).
As to “ATCCTCACCGCCCGTCCGCGCCGTGCACGCTCCCAGATCACGGAGTCACCTAGTGCAG”, the binding signal was 9660 fluorescence intensity (a.u.).
For “TTGGGTGGGATTTAAACAGGGTATTAGTGGATAATGATGTCGGAGTCACCTAGTGCAG”, the binding signal was 9570 fluorescence intensity (a.u.).
On to “GTACCATAAAGTCATTCCTGTTTCGGCCCAAATTGCCCAACGGAGTCACCTAGTGCAG”, for which the binding signal was 9540 fluorescence intensity (a.u.).
As to “TTCATGCGCCTCAGCCATCCCTTTATTTAAATGTAGCACACGGAGTCACCTAGTGCAG”, the binding signal is 8240 fluorescence intensity (a.u.).
For “CGAACGGTCGTCTGCCACGTCATTTTCGCCGCCCTCTGAGCGGAGTCACCTAGTGCAG”, the binding signal was 10300 fluorescence intensity (a.u.).
On to “AGTCCACCATCAATTCCACTTCATCCTTTCGCCCTTTAATCGGAGTCACCTAGTGCAG”, for which the binding signal is 9420 fluorescence intensity (a.u.).
As for “TTGCAAAATTTAAAATTATGTTGTCATTGTAATATATTTTCGGAGTCACCTAGTGCAG”, the figure is 8440 fluorescence intensity (a.u.); as for “GACGCCCCGCCCCGCGCCCCGCGCCTCGATCCTCGCCTCCCGGAGTCACCTAGTGCAG”, 10300 fluorescence intensity (a.u.); as for “GATAAGGAGACTAGTCACGCTCACGCTTGATTGTTCTATTCGGAGTCACCTAGTGCAG”, 11000 fluorescence intensity (a.u.).
As for “TCTGTCCTGATAGCTGCTCATGCTTAATGTTTCTTTCCTGCGGAGTCACCTAGTGCAG”, the binding signal is 9470 fluorescence intensity (a.u.).
Consider “TTTTTGGGCGTAATCCAGCGCGGCCGTCCGCCCGAGATCTCGGAGTCACCTAGTGCAG”, for which the binding signal was 8590 fluorescence intensity (a.u.).
On to “GCCTCCGACCACCGCAGGGCTCCGTCCCGCCGCCTCCCAGCGGAGTCACCTAGTGCAG”, for which the binding signal was 8300 fluorescence intensity (a.u.).
As for “CTTAGTCCTCATTGCATACCATAGAACATTCCTAGATAGACGGAGTCACCTAGTGCAG”, the figure is 9420 fluorescence intensity (a.u.).
“TTCTGCTTCTTCAGCCGATGCACAGCCTCTGATCAGCTTCCGGAGTCACCTAGTGCAG”: the binding signal is 9320 fluorescence intensity (a.u.).
For the sequence “GTGGTGTAGTGGGAGCGGCCGAGATGGGGCGTCGACGGGGCGGAGTCACCTAGTGCAG”, the binding signal is 8770 fluorescence intensity (a.u.).
In the case of “TAACTCCCGCCGCTTTCTCATGCATGGTCGATCCCGCGTACGGAGTCACCTAGTGCAG”, the binding signal is 12400 fluorescence intensity (a.u.).
As for “TCATTGCTCTCTGTGTTTCTCCGCTATGCCGCCACGTCTTCGGAGTCACCTAGTGCAG”, the figure is 16700 fluorescence intensity (a.u.).
For “GCTCCAAATTCACGCTACATTTCTTGGGCTTCATCTATATCGGAGTCACCTAGTGCAG”, the binding signal was 8800 fluorescence intensity (a.u.).
As to “GATGGCCCAAATATCATTTCACGAAGTTTTTTTTTTCTCTCGGAGTCACCTAGTGCAG”, the binding signal is 8550 fluorescence intensity (a.u.).
For “TATATGATACTATCTCCGTTTCAATTATAAAACTTTTTATCGGAGTCACCTAGTGCAG”, the binding signal is 8140 fluorescence intensity (a.u.).
Consider “CAGTTTCCACCCTGGGTGGGGTGGGGCCCACCTGTCGGGGCGGAGTCACCTAGTGCAG”, for which the binding signal was 9940 fluorescence intensity (a.u.).
As for “GTTCCGGAAAACCGCACATACTTGCACACAACCACGGATTCGGAGTCACCTAGTGCAG”, the figure is 8500 fluorescence intensity (a.u.); as for “TATTCTTGACTGTCTTTTTTTTTTCTCAACGTGCGCTTCACGGAGTCACCTAGTGCAG”, 15400 fluorescence intensity (a.u.).
Consider “GTTTCTTAAGCATAACTTCTCCCTGGCAAATGTTCTTTCTCGGAGTCACCTAGTGCAG”, for which the binding signal is 9610 fluorescence intensity (a.u.).
On to “AGGTTTGACTTTACTCTGCTTCAAAATGATAAGTATTACCCGGAGTCACCTAGTGCAG”, for which the binding signal was 10700 fluorescence intensity (a.u.).
In the case of “TCATTCCATTTCCACCTGATTTCCTACCCGGGCTACCAAACGGAGTCACCTAGTGCAG”, the binding signal was 9820 fluorescence intensity (a.u.).
The same measure for “GTGGCTCATATAGTCTGTGTTTCTCATATAAATCCCCATTCGGAGTCACCTAGTGCAG”: 8160 fluorescence intensity (a.u.).
